Reference: PubChem BioAssay AID258 (DTP/NCI, 2004)
The list shows only some results of the screen, not a fair sample: its compounds were picked by chemical class. Not every dose and run of a compound is shown. T/C is the treated group as % of the vehicle group. Where survival is the endpoint, the PubChem record calls one and a half times the control and up active, and a quarter to a half above the control has no call in these data; cut-offs in other NCI protocols can differ. Some entries show no survivor count and are marked so; the dose need not have been tolerated. Schedule codes are those of the source, read here as Q, the interval in days (D) or hours (H), X, the number of doses. Some schedules carry Z or #; the key to these is not given.

Tested on: CD2F1 mice, L1210 leukemia sc, survival T/C
Test: NCI In Vivo Anticancer Drug Screen. Data for tumor model L1210 Leukemia (subcutaneous) in CD2F1 (CDF1) mice
Conditions: T/C endpoint: median survival time, schedule: Q01DX Z (sc), vehicle: methylcellulose (MC), higher T/C = longer survival
Description: The antitumor activity of compounds was measured in mice bearing transplantable tumors. Survival or tumor size were measured and the results are expressed as the measurement made in the treated group (T) divided by the measurement made in the vehicle treated control group (C). The tumor model used in this assay is L1210 Leukemia (subcutaneous) in CD2F1 (CDF1) mice

SMILES: Cc1cc2nc(CN(CCCl)CCCl)[nH]c2cc1C
- T/C (dose: 23.0 mg/kg/injection): 116 % of control [survivor count not shown]
- T/C (dose: 39.0 mg/kg/injection): 133 % of control [survivor count not shown]
- T/C (dose: 65.0 mg/kg/injection): 133 % of control [survivor count not shown]
- T/C (dose: 108.0 mg/kg/injection): 108 % of control [survivor count not shown]
- T/C (dose: 180.0 mg/kg/injection): 91 % of control [survivor count not shown]
